The values below come from paper PMC2965674, “Functional Roles of the N- and C-Terminal Regions of the Human Mitochondrial Single-Stranded DNA-Binding Protein” (PLoS ONE, 2010).

This data set deals with T1, HsmtSSBwt (mature human mitochondrial SSB) (Homo sapiens) (UniProt Q04837).
T1 sequence (looked up, limits assumed): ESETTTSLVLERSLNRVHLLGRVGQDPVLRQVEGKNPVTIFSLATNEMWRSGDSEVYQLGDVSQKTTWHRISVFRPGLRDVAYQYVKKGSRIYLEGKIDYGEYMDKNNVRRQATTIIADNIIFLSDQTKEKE
Kind of data set: EMSA. The note with it: no affinity difference, 20 mM Tris-HCl pH 7.5, 1 mM DTT, 4 mM MgCl2, 50 mM NaCl, 36 fmol 48-mer in 20 µL, 20°C 10 min, 6% native PAGE, recombinant protein, label: 5'-32P, single-stranded DNA.

For at least one entry, the source does not settle the construct or the ends of the probe. At least one verdict was read from the data and is not stated in words by the source. Where a protein sequence is shown, tags need not be part of it.

Take “GGACTATTTATTAAATATATTTAAGAACTAATTCCAGCTGAGCGCCGG [48-mer ssDNA oligonucleotide]”: the binding result runs as follows: (20 mM NaCl) “binds”; (100 mM NaCl) “binds”.
